The target of the series is T1, SsOGT wild type (Sulfolobus solfataricus) (UniProt Q97VW7).
T1 sequence: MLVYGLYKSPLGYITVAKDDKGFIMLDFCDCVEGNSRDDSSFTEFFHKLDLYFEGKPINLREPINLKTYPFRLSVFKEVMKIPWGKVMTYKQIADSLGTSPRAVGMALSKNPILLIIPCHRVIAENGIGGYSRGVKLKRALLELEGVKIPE
The series can be described thus: EMSA. The note with it: EMSA: 0-25 uM protein, 0.2 uM probe, 37 C 10 min, 10 ul, buffer as ref. 17, 8% native PAGE in 1X TBE pH 8.3; recombinant protein; residues 1-151; protein details: N-terminal His (pQE31); label: TAMRA, 5' of A+. On the technique in general: A gel shift assay detects complexes by their altered migration in electrophoresis.

For the sequence “GCAACAACGTTGCGCAAACTATTAACTGGCGAACTACTTA (double strand) [ds A+/D- (A+/A- in Fig. 3 legend)]”, the binding result is reported as “binds”.

Values taken from PMC4605297.
